MtTrpRS: 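Enzyme assay of tryptophanyl-tRNA synthetase; the read-out is not stated. Target: Tryptophan-tRNA ligase, Mycobacterium tuberculosis (UniProt P9WFT3). Concentration: 10 µM. Higher most likely means stronger inhibition; the record gives no direction and few retests gave an IC50. Of about 65,000 compounds tested this way, about 64 (0.098%) reached 50% or more in at least one test.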
ClpP1P2: 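ClpP1P2, Mycobacterium tuberculosis (UniProt P9WPC5 and UniProt P9WPC3). Protease assay of ClpP1P2, read by the AMC dye that it sets free. Tested at 50 µM. Direction is inferred from only a few compounds that gave an IC50; most scored high, so higher reads as stronger inhibition. Most other retested compounds had strongly negative values. About 69,000 compounds were tested under these conditions; 0.015% (about 10) showed 50% or more at least once.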
Pks13 thioesterase: 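Polyketide synthase Pks13, Mycobacterium tuberculosis (UniProt I6X8D2). Enzyme assay of the thioesterase domain of polyketide synthase 13; the read-out is not stated. Compounds at 30 µM. The record gives no direction; the compounds picked for IC50 retests had high values, so higher reads as stronger inhibition. Of about 67,000 compounds tested this way, about 300 (0.46%) reached 50% or more in at least one test.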
PfKRS1: 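Enzyme assay of the cytosolic lysyl-tRNA synthetase in 384-well plates, read by luminescence. Target: Lysine-tRNA ligase, Plasmodium falciparum 3D7 (UniProt Q8IDJ8). Tested at 30 µM. Direction is inferred from only a few compounds that gave an IC50; most scored high, so higher reads as stronger inhibition. Size under these conditions: about 69,000 compounds, about 49 of them at 50% or above in at least one test.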

Amino acid sequences for entries named in this document (tags omitted). Residues count along the entry.
UniProt P9WFT3, whole entry: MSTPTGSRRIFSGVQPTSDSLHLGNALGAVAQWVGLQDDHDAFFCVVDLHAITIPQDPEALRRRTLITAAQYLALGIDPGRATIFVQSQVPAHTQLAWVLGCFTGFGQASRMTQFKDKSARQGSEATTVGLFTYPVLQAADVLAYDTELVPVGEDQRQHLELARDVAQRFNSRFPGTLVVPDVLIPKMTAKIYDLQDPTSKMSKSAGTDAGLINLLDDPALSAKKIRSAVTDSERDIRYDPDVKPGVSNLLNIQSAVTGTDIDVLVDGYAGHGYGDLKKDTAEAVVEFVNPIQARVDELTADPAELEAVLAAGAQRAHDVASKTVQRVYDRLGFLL
UniProt P9WPC5, whole entry: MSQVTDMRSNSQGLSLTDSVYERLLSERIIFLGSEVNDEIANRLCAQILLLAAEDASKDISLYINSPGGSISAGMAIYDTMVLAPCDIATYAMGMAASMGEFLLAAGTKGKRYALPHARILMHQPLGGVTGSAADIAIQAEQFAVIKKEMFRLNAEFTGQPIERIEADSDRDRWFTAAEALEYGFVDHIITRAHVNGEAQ
UniProt P9WPC3, whole entry partner: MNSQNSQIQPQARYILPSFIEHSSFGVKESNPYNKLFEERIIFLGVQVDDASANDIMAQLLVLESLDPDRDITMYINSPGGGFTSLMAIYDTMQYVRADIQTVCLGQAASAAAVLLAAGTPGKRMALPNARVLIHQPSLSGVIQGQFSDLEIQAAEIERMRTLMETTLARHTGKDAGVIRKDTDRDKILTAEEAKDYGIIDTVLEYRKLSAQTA
UniProt I6X8D2, whole entry: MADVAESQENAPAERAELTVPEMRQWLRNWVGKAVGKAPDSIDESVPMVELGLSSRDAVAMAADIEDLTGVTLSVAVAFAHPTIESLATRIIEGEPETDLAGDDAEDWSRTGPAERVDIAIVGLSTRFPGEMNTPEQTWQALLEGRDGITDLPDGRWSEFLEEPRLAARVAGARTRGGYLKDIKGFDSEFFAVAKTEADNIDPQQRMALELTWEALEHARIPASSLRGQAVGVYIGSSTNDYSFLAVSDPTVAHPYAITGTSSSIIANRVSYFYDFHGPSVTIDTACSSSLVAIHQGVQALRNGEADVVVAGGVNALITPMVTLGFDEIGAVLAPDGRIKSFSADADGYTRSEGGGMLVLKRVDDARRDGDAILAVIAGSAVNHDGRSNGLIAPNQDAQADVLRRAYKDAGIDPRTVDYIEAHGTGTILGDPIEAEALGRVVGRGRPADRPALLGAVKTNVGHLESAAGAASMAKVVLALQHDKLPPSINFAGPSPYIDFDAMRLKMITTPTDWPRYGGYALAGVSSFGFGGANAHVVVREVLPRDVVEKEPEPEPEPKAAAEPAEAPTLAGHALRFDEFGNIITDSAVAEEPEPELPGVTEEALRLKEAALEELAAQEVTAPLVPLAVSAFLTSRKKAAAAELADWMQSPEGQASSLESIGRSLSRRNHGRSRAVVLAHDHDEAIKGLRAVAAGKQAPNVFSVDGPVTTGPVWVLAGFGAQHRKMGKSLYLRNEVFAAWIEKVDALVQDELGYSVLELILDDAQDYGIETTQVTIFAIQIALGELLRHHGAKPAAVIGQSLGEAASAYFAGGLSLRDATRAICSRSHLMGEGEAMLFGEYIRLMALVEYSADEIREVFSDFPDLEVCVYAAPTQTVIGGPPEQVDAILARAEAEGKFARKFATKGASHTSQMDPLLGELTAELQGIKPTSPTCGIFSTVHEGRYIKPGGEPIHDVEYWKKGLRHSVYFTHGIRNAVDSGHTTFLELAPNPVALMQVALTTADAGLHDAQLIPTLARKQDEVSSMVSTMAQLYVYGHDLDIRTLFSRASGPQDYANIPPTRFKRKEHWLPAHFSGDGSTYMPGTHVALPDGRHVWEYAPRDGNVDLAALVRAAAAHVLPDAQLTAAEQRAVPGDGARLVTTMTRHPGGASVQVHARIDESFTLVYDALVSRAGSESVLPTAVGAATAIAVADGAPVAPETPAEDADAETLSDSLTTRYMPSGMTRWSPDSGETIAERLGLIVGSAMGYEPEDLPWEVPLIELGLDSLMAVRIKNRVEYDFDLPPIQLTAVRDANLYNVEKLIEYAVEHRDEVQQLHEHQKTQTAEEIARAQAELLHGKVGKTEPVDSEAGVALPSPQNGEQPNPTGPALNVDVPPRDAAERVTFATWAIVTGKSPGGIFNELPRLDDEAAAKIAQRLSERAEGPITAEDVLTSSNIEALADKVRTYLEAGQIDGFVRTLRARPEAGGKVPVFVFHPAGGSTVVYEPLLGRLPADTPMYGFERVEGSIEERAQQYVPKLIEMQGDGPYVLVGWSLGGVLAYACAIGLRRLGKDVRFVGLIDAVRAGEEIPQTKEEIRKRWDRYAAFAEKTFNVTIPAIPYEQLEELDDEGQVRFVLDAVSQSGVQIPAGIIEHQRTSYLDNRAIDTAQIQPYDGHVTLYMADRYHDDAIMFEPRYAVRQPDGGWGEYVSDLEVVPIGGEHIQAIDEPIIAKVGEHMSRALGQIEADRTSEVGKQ
UniProt Q8IDJ8, 1-583: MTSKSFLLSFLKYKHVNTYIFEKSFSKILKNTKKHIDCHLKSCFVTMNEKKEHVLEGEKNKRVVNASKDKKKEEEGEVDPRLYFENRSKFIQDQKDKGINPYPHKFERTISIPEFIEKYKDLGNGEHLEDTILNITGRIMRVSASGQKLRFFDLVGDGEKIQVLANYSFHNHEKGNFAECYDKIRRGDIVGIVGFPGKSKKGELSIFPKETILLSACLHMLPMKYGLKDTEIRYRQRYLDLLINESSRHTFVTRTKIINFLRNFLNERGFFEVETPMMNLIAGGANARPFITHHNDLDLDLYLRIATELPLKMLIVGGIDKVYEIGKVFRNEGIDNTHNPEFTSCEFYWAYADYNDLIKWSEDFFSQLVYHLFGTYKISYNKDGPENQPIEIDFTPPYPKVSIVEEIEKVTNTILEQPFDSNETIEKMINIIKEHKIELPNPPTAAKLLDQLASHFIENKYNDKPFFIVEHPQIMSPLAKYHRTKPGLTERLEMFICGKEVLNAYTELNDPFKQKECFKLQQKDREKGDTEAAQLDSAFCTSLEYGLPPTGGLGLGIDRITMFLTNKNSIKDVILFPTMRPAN

Results are given as percent effect.
How 0% and 100% were set is not recorded. Most values in the screen are low, and negative values occur.
Compounds were drawn at random from those tested, without regard to their results.
A dash means the value is not listed here; it may have been measured.

Compound	MtTrpRS	ClpP1P2	Pks13 thioesterase	PfKRS1
Cc1nc(C)n(CC2CCCCN2Cc2nc(-c3ccoc3)no2)n1 (configuration not stated)	0.4394	-15.07	-20.24	-1.8
CC(C)(C)CC(=O)NCCn1nc(C2CCNC2)c2cccnc21 (configuration not stated)	-	-0.8579	-1.113	3.419
CC1CCN(S(=O)(=O)NC(C)Cc2ccco2)CC1 (configuration not stated)	0.8227	-10.34	-12.38	3.337
Cc1cnn(CC2CCCN2CC(=O)Nc2nc(C)cs2)c1 (configuration not stated)	2.128	-7.896	-8.17	5.006
CC(=O)c1cc(CN2CCCC23CCN(c2ccccn2)CC3)cs1	0.1236	-14.56	-14.09	1.397
COc1ccc(S(=O)(=O)NC(=O)COC2CCCCC2)cc1C	-0.09737	-12.69	-7.977	3.132
c1cc(-c2cncc(C3CCNCC3)n2)n[nH]1	-5.855	11.54	-3.816	2.09
COCCn1ccnc1C1CCN(c2cccc(C(=O)O)n2)CC1	3.532	3.556	-31.22	4.259
Cc1ccc(C(C)NC(=O)Nc2ccccc2CN2CCOCC2)o1 (configuration not stated)	-6.706	-4.596	-18.63	5.569
Cc1nnc(N2CC[C@H](OCC3CC3)[C@@H](Cc3ccccc3)C2)s1	-5.981	-28.23	-12.8	4.105
Cc1nc(C)n(CC2CCCCN2CCCS(=O)(=O)N(C)C)n1 (configuration not stated)	1.625	7.61	-16.84	-7.562
CC(C)(C)NC(=O)CNc1ccc(C#N)c(C(F)(F)F)c1	-3.534	-8.181	-20.5	2.953
CN1CCCC(c2nccnc2-c2cccc(C(F)(F)F)c2)C1 (configuration not stated)	-3.46	-10.86	-5.046	1.823
c1nc2n(n1)CC(NCc1csc(-c3ccsc3)n1)CC2 (configuration not stated)	2.301	4.895	-8.571	2.063
CCC(O)CN1CCN(C(=O)CCc2c(C)noc2Cl)CC1 (configuration not stated)	-7.484	-8.021	6.586	1.812
c1cc(CN2CCN(Cc3cscn3)CC2)cs1	0.2346	-5.527	-16.75	2.719
Cn1cccc1C(=O)NS(=O)(=O)c1cnn(-c2ccccc2F)c1	8.302	-1.457	-2.453	-0.6128
O=C(NC1CC1)C1CCc2nnc(-c3cccnc3)n21 (configuration not stated)	-9.94	-1.586	-2.084	-0.5135
c1cnc(-c2nc(CNCCn3cccn3)cs2)nc1	-14.78	4.594	6.013	-7.943
CNS(=O)(=O)c1cccc(CNc2ccc(C#N)cn2)c1	-3.138	7.958	-2.652	6.453
CNC(=O)[C@@]12CCO[C@@H]1CCN(S(=O)(=O)c1ccc(C)cc1)C2	-2.199	0.1051	-1.539	-2.402
COCc1nnc(-c2cccc(C(=O)OC(C)C)c2)o1	-0.9709	-4.185	1.378	-3.4
CC(C)(C)c1nc(CN2CCCC2Cn2cncn2)no1 (configuration not stated)	-3.603	3.622	6.995	0.7881
O=C(CCc1ccco1)Nc1ccc(Br)cn1	0.5128	-5.274	1.736	1.658
CCS(=O)(=O)N1CCC(OC)c2ccccc2N(CC(=O)NC)C(=O)C1 (configuration not stated)	-	-6.659	-13.77	6.229
c1csc(CN2C[C@@H]3OCCN(CC4CCCO4)[C@@H]3C2)c1 (some centres not stated)	-0.08224	2.299	-14.68	0.7432
Cc1noc(C)c1CNCC1CCN(CC(O)c2ccccc2)CC1 (configuration not stated)	-2.047	-0.3269	-10.49	3.024
Cn1ccnc1C1CCN(CCN2CCOCC2)CC1	5.385	-5.049	-10.19	2.468
CCc1ccccc1NCc1nc2[nH]c(C)c(C)c(=O)n2n1	-5.599	1.165	-13.69	-0.4137
N#CCCN(CC1CC1)S(=O)(=O)c1cccc(Cl)c1	-4.175	0.0175	11.47	2.313
Cn1ccnc1CN1CCC2(CC1)CC(N1CCCC1)c1ccccc12 (configuration not stated)	-	-10.72	1.964	3.494
Cc1ccc(-c2nc(CCNC(=O)NCC(C)(C)C(N)=O)co2)cc1	-4.231	-24.6	-1.11	-0.1274
CCc1nccn1-c1cncc(C2CCCN2Cc2ccccn2)n1 (configuration not stated)	-	-8.691	6.327	2.155
Cc1cccc(C(=O)N2CCC3(CC2)CC(c2ccccc2)C(=O)N3)c1 (configuration not stated)	3.906	-3.504	-18.07	2.51
CCN(CC1CCOC1)C(=O)CSCC(=O)Nc1ccc(C)cc1 (configuration not stated)	-4.277	-5.812	-18.29	1.433

Some entries from above, unchanged:

Compound,MtTrpRS,ClpP1P2,Pks13 thioesterase,PfKRS1
CNS(=O)(=O)c1cccc(CNc2ccc(C#N)cn2)c1,-3.138,7.958,-2.652,6.453
Cc1nnc(N2CC[C@H](OCC3CC3)[C@@H](Cc3ccccc3)C2)s1,-5.981,-28.23,-12.8,4.105

Source: ChEMBL document CHEMBL3988442, “University of Dundee, Small-Polar-MMV Screening Library” (2021).